Results from PubChem BioAssay AID540256 (National Center for Advancing Translational Sciences (NCATS), 2011).
Among all 300,000 compounds or so, about 3,700 (1.2%) were called active. The inconclusive results got no clear call from the source; some entries with a clear call stand among them for comparison. The call rests on the fitted dose curve; tested in HEK293 cells. Potencies of inconclusive entries are doubtful fits and often do not repeat.

assay: qHTS for Inhibitors of binding or entry into cells for Lassa Virus; details: Lassa virus pseudotype entry inhibition, cell reporter; series mostly up to 37.9 µM; further: nearly all actives have a fitted effect of over 50% in size
Potency means the concentration at half of the fitted maximal effect.

SMILES | Potency
CCN1CCN(CC(=O)c2c(C)n(C)c3ccc(OC)cc23)CC1 | inconclusive: 1 µM [activator, single point]
Cc1cccn2c(=O)c3cc(C(=O)NCCc4ccccc4)c(=N)n(Cc4ccco4)c3nc12 | inconclusive: 11.2 µM [inhibitor, single point]
COc1cccc(CNS(=O)(=O)c2ccc3c(c2)CC(C)N3C(=O)C2CC2)c1 (configuration not stated) | inconclusive: 7.08 µM [inhibitor, partial curve, poor fit]
CCn1ncc(C2=NOC(C(=O)Nc3ccc(C)cc3)C2)c1C (configuration not stated) | inactive
COc1ccc(/C=N/NC(=O)Nc2cccc3nsnc23)cc1OC | inactive
C/C(=N\NC(=O)c1ccc(O)cc1)c1cccc(NC(=O)c2ccccc2C)c1 | inconclusive: 35.5 µM [inhibitor, single point]
COc1cc(CN=C(C)c2c(O)n(C3CCCCC3)c(=O)[nH]c2=O)cc(OC)c1 | inconclusive: 6.31 µM [inhibitor, full curve]
CCc1c(C)sc2c1CCN(Cc1ccccc1F)C2c1ccccc1 (configuration not stated) | inconclusive: 11.2 µM [inhibitor, partial curve, poor fit]
CCOc1ccc(-c2c(C)nn3c(C)c(C(=O)NCCc4ccc(C)cc4)cnc23)cc1OCC | inconclusive: 6.31 µM [inhibitor, single point]
O=[N+]([O-])c1ccc(O)c(/C=N/Nc2ccccc2Cl)c1 | inconclusive: 17.8 µM [inhibitor, single point]
O=C1c2cccc3c([N+](=O)[O-])ccc(c23)C(=O)N1CCc1ccccn1 | inactive
O=S(Cc1cc(Oc2ccccc2)nc(-c2ccccc2)n1)c1ccccc1 (configuration not stated) | inconclusive: 35.5 µM [inhibitor, single point]
c1ccc(-c2cc3n(c2)CCc2ccccc2-3)cc1 | inconclusive: 5.62 µM [activator, partial curve, poor fit]
O/N=C/c1ccnc(SCc2ccccc2)n1 | inconclusive: 0.562 µM [activator, partial curve, poor fit]
CCN(CC)CCn1c2ccccc2c2cnc(N)c(C#N)c21 | inconclusive: 1.26 µM [inhibitor, partial curve, poor fit]
O=C(C1=NOC(CNc2ncc(C(F)(F)F)cc2Cl)C1)N1CCOCC1 (configuration not stated) | inactive
COc1cccc(NC(=O)Cn2c(=O)n(-c3ccccc3)c(=O)c3oc4ccccc4c32)c1 | inconclusive: 15.8 µM [inhibitor, single point]
Cc1ccc(NC(=O)CCc2c[nH]c3ccccc23)nc1 | inconclusive: 0.891 µM [inhibitor, full curve, poor fit]
CN1CC=C2C(C#N)=C(N)C(C#N)(C#N)C(c3ccsc3)C2C1 (configuration not stated) | inactive
CC(C)C(=O)Nc1ccc(Br)cc1Cl | inactive
Cc1ccc(-n2c(C)csc2=N)cc1 | inactive
O=C(Nc1cc(S(=O)(=O)N2CCOCC2)ccc1N1CCCC1)c1ccc(Cl)cc1 | inactive
CCn1ncc(/C=N\NC(=O)COc2ccccc2)c1C | inactive
COc1cccc(Cn2cc(C(=O)c3ccc(Cl)cc3)c(=O)c3ccccc32)c1 | inconclusive: 35.5 µM [inhibitor, single point]

Sorted by formula weight (falling): some entries from above.
SMILES | Potency
O=C(Nc1cc(S(=O)(=O)N2CCOCC2)ccc1N1CCCC1)c1ccc(Cl)cc1 | inactive
CCN1CCN(CC(=O)c2c(C)n(C)c3ccc(OC)cc23)CC1 | inconclusive: 1 µM [activator, single point]
O=[N+]([O-])c1ccc(O)c(/C=N/Nc2ccccc2Cl)c1 | inconclusive: 17.8 µM [inhibitor, single point]
Cc1ccc(NC(=O)CCc2c[nH]c3ccccc23)nc1 | inconclusive: 0.891 µM [inhibitor, full curve, poor fit]

Next part:

SMILES | Potency
CC(C)(C)Nc1nc(SCC(=O)Nc2ccccc2Cl)nc(N2CCOCC2)n1 | inconclusive: 14.1 µM [inhibitor, partial curve, poor fit]
Cc1ccc(-c2csc3ncnc(N4CCN(c5ccccc5O)CC4)c23)cc1 | inconclusive: 10 µM [inhibitor, partial curve]
COCC(=O)NC1CC2CCC(C1)N2C(=S)Nc1ccccc1C(=O)OC (configuration not stated) | inactive
COc1cc(/C=C(/C)[N+](=O)[O-])ccc1OCc1ccccc1Cl | inconclusive: 6.31 µM [inhibitor, full curve, poor fit]
CCCc1ccc2oc(C(=O)N(Cc3ccncc3)CC3CCCO3)c(C)c2c1 (configuration not stated) | active: 6.31 µM
CCCC(CCC)=NNC(=O)c1ccccc1F | inconclusive: 22.4 µM [activator, single point]
O=C(Nc1ccncc1)c1ccc(Cl)c(S(=O)(=O)N2CCc3ccccc32)c1 | active: 7.94 µM
Cc1ccc(-n2cnnn2)cc1S(N)(=O)=O | inconclusive: 11.2 µM [inhibitor, partial curve, poor fit]
N#C/C(=C\c1c(N2CCN(c3ccccc3)CC2)nc2ccccn2c1=O)S(=O)(=O)c1ccccc1 | inactive
COc1ccc2[nH]cc(CCN=C(NC(=O)c3ccccc3OC)Nc3nc(C)cc(C)n3)c2c1 | inconclusive: 3.98 µM [inhibitor, partial curve]
O=C(CNC(=O)c1ccco1)N=Nc1c(O)[nH]c2ccc([N+](=O)[O-])cc12 | inconclusive: 28.2 µM [activator, single point]
O=C(Cn1cnc2ccccc2c1=O)OCC(=O)c1ccc2c(c1)OCCO2 | inactive
CNC(=O)CN1C(=O)COc2ccc(S(=O)(=O)N3CCC(C)CC3)cc21 | inactive
O=C(Oc1cccc2c(=O)[nH]ccc12)c1ccccc1 | inconclusive: 15.8 µM [activator, partial curve, poor fit]
COC(=O)c1ccc(CSC(=N)N)o1 | inconclusive: 0.794 µM [inhibitor, partial curve, poor fit]
CN(C)/C=C/C(=O)c1cnc(-c2ccccc2)s1 | inconclusive: 35.5 µM [activator, single point]
Cc1ccc(C(=O)NC2CC3CCCC(C2)N3C(=S)NCc2ccco2)cc1 (configuration not stated) | inactive
CC(=O)c1ccc(N2CCN(C(=O)c3ccco3)CC2)c(F)c1 | inactive
COCCNC(=O)/C(=C/c1ccccc1Cl)c1ccccc1 | inconclusive: 8.91 µM [inhibitor, partial curve, poor fit]
COc1ccccc1Nc1nc(NCCO)nc(N)c1[N+](=O)[O-] | inactive
Cn1c(=O)c2c(ncn2CC(=O)N/N=C/C(Br)=C/c2ccccc2)n(C)c1=O | inactive
CCn1c(N)nc2ccccc21 | inactive
O=C(CSc1nc2ccccc2c(=O)n1CCCO)NCc1ccccc1 | inconclusive: 4.11 µM [activator, partial curve, poor fit]
